# Data taken from article PMC7819943, “Rice protein-binding microarrays: a tool to detect cis-acting elements near promoter regions in rice”.
# By UniProt entry, the sequences of proteins in these tests, tags left out.
# UniProt Q0JBA9, entry or part of it: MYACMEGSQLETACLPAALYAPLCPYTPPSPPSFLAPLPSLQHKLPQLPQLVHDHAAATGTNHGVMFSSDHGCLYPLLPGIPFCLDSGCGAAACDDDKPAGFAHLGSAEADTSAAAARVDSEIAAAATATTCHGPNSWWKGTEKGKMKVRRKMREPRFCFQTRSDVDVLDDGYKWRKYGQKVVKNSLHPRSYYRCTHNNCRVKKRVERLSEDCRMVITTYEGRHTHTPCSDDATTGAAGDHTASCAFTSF
# The list shows a part of the results.
# Molecular target: OsWRKY34 (Oryza sativa, UniProt Q0JBA9 1-250)
# Assay: protein-binding microarray (RPBM); PBS, 2% BSA, 51.3 ng/ul salmon testes DNA, 50 uM zinc acetate, 200 nM TF, 25 C, 1 h; high values mean tight binding
# Conditions: protein: recombinant; tags: N-terminal polyhistidine and DsRed monomer fusion (pET32a); label: CyDye5-dUTP incorporated in the synthesized complementary strand; 3' TTTTT single-stranded linker to array surface; dsDNA, one strand shown
# Summary of the method: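 Transcription factors were made in E. coli BL21-CodonPlus as N-terminal fusions to a polyhistidine tag and DsRed, then purified on Ni–NTA. After primer extension with Cy5-dUTP and blocking with 2% BSA, a custom Agilent array was exposed for 1 h at 25 °C to 200 nM protein in PBS, 2% BSA, salmon testes DNA and 50 µM zinc acetate. Washed arrays were scanned on an Axon 4000B, and the binding signal is per-feature fluorescence intensity in arbitrary units.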
row,Sequence,binding signal
1,TGTTCATCTCTAGTTTTACTGACCACACTAACTCTGTCACCGGAGTCACCTAGTGCAG,8520 fluorescence intensity (a.u.)
2,AACCATTAAAAAATCAGTCAAATGTTTTTTATACCTTTTCCGGAGTCACCTAGTGCAG,8330 fluorescence intensity (a.u.)
3,TACTGTTATTTGCATATTGGAACACTAGTCTTTCACACGTCGGAGTCACCTAGTGCAG,9270 fluorescence intensity (a.u.)
4,ATCCCCATTTTTTTCCCAAGTGGTACACTGAAATTTTTTTCGGAGTCACCTAGTGCAG,8100 fluorescence intensity (a.u.)
5,TCTGTTGTATTCTTGGTGGGCGAGTGTCGGAGTTTTTTTCCGGAGTCACCTAGTGCAG,8200 fluorescence intensity (a.u.)
6,TTGTTGTCCCGTGTCTCCGCCGTCGCGTCACCGCCCAGCACGGAGTCACCTAGTGCAG,10200 fluorescence intensity (a.u.)
7,CCCGATCGCTTCTTCTTCTTCTTCTTCGTTGCATTCATCTCGGAGTCACCTAGTGCAG,10000 fluorescence intensity (a.u.)
8,ATGTCCGACTGCGCCATCATTGTCTCCGCTAACGCCATTGCGGAGTCACCTAGTGCAG,8540 fluorescence intensity (a.u.)
9,TGTTGTGGGATTCCCCTTTCCTACGAACTCTCCCGTCGTTCGGAGTCACCTAGTGCAG,9620 fluorescence intensity (a.u.)
10,GCCGCCGGCTCACCCGCCACGCGCAACCGCCCGCCGCCGCCGGAGTCACCTAGTGCAG,10400 fluorescence intensity (a.u.)
11,CCAAATCTGGAGCTGGACCATATGTATCATTACCCAAACACGGAGTCACCTAGTGCAG,8340 fluorescence intensity (a.u.)
12,ATTTCCAACCATTTCCTACCGTTTTCGTCCCTGGCAAACGCGGAGTCACCTAGTGCAG,8470 fluorescence intensity (a.u.)
13,TCACGGCCTCAATGGCGTCCTGCCATGCTTTGTTCCTGCACGGAGTCACCTAGTGCAG,10800 fluorescence intensity (a.u.)
14,CCGTGTAGATTTTAGCTTAATGTGTTCTTGGGTTGCCGTCCGGAGTCACCTAGTGCAG,8630 fluorescence intensity (a.u.)
15,CACCTCGCGCCGCGCCCCATCCTTATCGTCATGACACGCCCGGAGTCACCTAGTGCAG,8810 fluorescence intensity (a.u.)
16,TAGCACATATACCATCACATCATTTTTCCTTTGCAACACTCGGAGTCACCTAGTGCAG,8800 fluorescence intensity (a.u.)
17,AATTATAACATTTTCTTCACCTAAATTTTTTCATCCCCTTCGGAGTCACCTAGTGCAG,8200 fluorescence intensity (a.u.)
18,CTCATATGCTCATATCTATTGCAACAATCTAAGATATTTTCGGAGTCACCTAGTGCAG,10600 fluorescence intensity (a.u.)
19,ATACTTATTTGCTCGCATATTTGGCTTCTTTCTGTTTAGACGGAGTCACCTAGTGCAG,11100 fluorescence intensity (a.u.)
20,CATAAGAGAGGAGGAGGGAGAGGTAGGGTCGTGGGGAAGGCGGAGTCACCTAGTGCAG,8260 fluorescence intensity (a.u.)
21,TTTTTCCTCGTCCCAAAAGCTCTTTAGGTCCTGTTTCTTTCGGAGTCACCTAGTGCAG,13200 fluorescence intensity (a.u.)

row,Sequence,binding signal
1,TGTATTCTCACATCTCCAGCTCTGTCTCCACATGATACCACGGAGTCACCTAGTGCAG,10500 fluorescence intensity (a.u.)
2,GAAACACCCGTCCGATTCACATCCAACGATCCGCAACCCACGGAGTCACCTAGTGCAG,10300 fluorescence intensity (a.u.)
3,TTATGTACCGGGTTGGAATATATTACACCTTCTTCATTTTCGGAGTCACCTAGTGCAG,8930 fluorescence intensity (a.u.)
4,TTGGCCAGCAGCACAGGGATCGAGCGAGTTATACCTATTCCGGAGTCACCTAGTGCAG,9140 fluorescence intensity (a.u.)
5,GATTCTACGCGACTCATCGTCTTCCTCTTCCCTCGAGCAGCGGAGTCACCTAGTGCAG,8380 fluorescence intensity (a.u.)
6,AATCGCATATAGTTTAGGGGCTAAACTCGACTTTATTTTCCGGAGTCACCTAGTGCAG,10000 fluorescence intensity (a.u.)
7,CTCTAATATATTGGGCAATACTCTTGCCGCTTTCACCTTACGGAGTCACCTAGTGCAG,8690 fluorescence intensity (a.u.)
8,TTATGGCTGTGTTTAGTTTCTGAAATTGAGGAGAAGTTCACGGAGTCACCTAGTGCAG,9300 fluorescence intensity (a.u.)
9,CATGAATTACTGGCATCTTGTAACGGATCCCCTCGTCAAACGGAGTCACCTAGTGCAG,9980 fluorescence intensity (a.u.)
10,GCCGCGCCGACCATCCCACCTTGTTTGGTTGTAATTTCTTCGGAGTCACCTAGTGCAG,9000 fluorescence intensity (a.u.)
11,CTCCGTACATCTTTCATTATTTTTATCCTTTTATTAAATGCGGAGTCACCTAGTGCAG,9250 fluorescence intensity (a.u.)
12,CGATTTTGCGGTTTTTTGGCTGGCGTGTTCGCTTCGCACCCGGAGTCACCTAGTGCAG,10900 fluorescence intensity (a.u.)
13,ACTGAAGGCGGTTTTCTCACACTTCACCTACCTCGTTGACCGGAGTCACCTAGTGCAG,15800 fluorescence intensity (a.u.)
14,CCGTCTCGGTCTCGTACTCTCGTGCACCGCCCCGCCCGGCCGGAGTCACCTAGTGCAG,10800 fluorescence intensity (a.u.)
15,ACACTAATCACTACTTGCCACATGCAGTAACACTCGCCTACGGAGTCACCTAGTGCAG,8760 fluorescence intensity (a.u.)
16,AGTCACTACTCTTCATTGAATTAATCTGGGGCATAATTTCCGGAGTCACCTAGTGCAG,9910 fluorescence intensity (a.u.)
17,TAAATTATTGCAATGCTCACTTTCTCCATGGAATCAACTGCGGAGTCACCTAGTGCAG,8560 fluorescence intensity (a.u.)
18,AGCCATTGCCCTCACCGTCTATGCCATTGTGGCATGGTCACGGAGTCACCTAGTGCAG,8630 fluorescence intensity (a.u.)
19,CATTCTAGTGATTATTGCGACCGTTACTGGCTCTTTCATTCGGAGTCACCTAGTGCAG,8060 fluorescence intensity (a.u.)
20,ATATGTAGCCCGTAGCTCTTATCTCTCATATTTTATTTTACGGAGTCACCTAGTGCAG,9940 fluorescence intensity (a.u.)
21,TACCACTCTACTAGACTCCGTTCGCTGACACGCCCCGTCCCGGAGTCACCTAGTGCAG,11100 fluorescence intensity (a.u.)

# Single entries from the results shown:
# ATTTCCAACCATTTCCTACCGTTTTCGTCCCTGGCAAACGCGGAGTCACCTAGTGCAG – binding signal: 8470 fluorescence intensity (a.u.)
# CACCTCGCGCCGCGCCCCATCCTTATCGTCATGACACGCCCGGAGTCACCTAGTGCAG – binding signal: 8810 fluorescence intensity (a.u.)
# AATTATAACATTTTCTTCACCTAAATTTTTTCATCCCCTTCGGAGTCACCTAGTGCAG – binding signal: 8200 fluorescence intensity (a.u.)
